Assay results reported in PMC3901670.
Results are given in words; binding and its absence hold for the method and conditions named. In cells and extracts the contact can be indirect. Tags and fused reporters may be left off the sequences shown.

By UniProt entry, the sequences of proteins in these tests, tags left out. Where a name states a change or a piece, a line headed by the entry shows the natural chain unless it says otherwise.
UniProt Q9BXM7: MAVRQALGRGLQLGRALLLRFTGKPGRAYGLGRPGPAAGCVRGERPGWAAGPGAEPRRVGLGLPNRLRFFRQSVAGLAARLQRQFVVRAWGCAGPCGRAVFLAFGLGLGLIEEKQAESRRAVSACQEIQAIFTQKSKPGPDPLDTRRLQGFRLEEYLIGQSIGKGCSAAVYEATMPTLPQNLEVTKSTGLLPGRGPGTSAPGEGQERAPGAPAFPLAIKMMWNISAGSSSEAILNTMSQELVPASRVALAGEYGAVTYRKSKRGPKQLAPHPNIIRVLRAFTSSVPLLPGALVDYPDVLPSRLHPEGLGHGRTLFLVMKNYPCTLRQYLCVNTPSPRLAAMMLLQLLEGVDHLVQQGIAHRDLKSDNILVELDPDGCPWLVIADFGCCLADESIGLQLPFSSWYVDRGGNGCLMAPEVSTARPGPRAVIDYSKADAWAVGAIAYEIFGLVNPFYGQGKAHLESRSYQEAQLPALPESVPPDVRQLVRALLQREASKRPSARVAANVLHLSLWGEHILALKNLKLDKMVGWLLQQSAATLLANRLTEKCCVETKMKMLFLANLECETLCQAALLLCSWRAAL

Target: GST-PINK1(1–140), mitochondrial targeting domain (human) (UniProt Q9BXM7)
Assay: condition: 50 µg of protein from the crude extract in 0.25 ml; pull-down; GST fusion from E. coli crude extract held on glutathione agarose beads and washed with PBS; incubated with 50 µg of protein from the supernatant of E. coli crude extract with His-PINK1 or His-BAG5 in 0.25 ml HNTG buffer (20 mM HEPES-KOH pH 7.5, 100 mM NaCl, 0.1% Triton X-100, 10% glycerol), 2 h at 4°C; immunoblot; only the target purified

B1: His-BAG5 (protein, UniProt Q9UL15 1-447)
chain: MDMGNQHPSISRLQEIQKEVKSVEQQVIGFSGLSDDKNYKKLERILTKQLFEIDSVDTEGKGDIQQARKRAAQETERLLKELEQNANHPHRIEIQNIFEEAQSLVREKIVPFYNGGNCVTDEFEEGIQDIILRLTHVKTGGKISLRKARYHTLTKICAVQEIIEDCMKKQPSLPLSEDAHPSVAKINFVMCEVNKARGVLIALLMGVNNNETCRHLSCVLSGLIADLDALDVCGRTEIRNYRREVVEDINKLLKYLDLEEEADTTKAFDLRQNHSILKIEKVLKRMREIKNELLQAQNPSELYLSSKTELQGLIGQLDEVSLEKNPCIREARRRAVIEVQTLITYIDLKEALEKRKLFACEEHPSHKAVWNVLGNLSEIQGEVLSFDGNRTDKNYIRLEELLTKQLLALDAVDPQGEEKCKAARKQAVRLAQNILSYLDLKSDEWEY
In the case of B1, the binding is reported as “no binding”.
